In PubChem BioAssay AID504648 (National Center for Advancing Translational Sciences (NCATS), 2011):
“And” between values parts separate entries of the source, which are not always exact repeats. Identical values can stand only once. Among all 390,000 compounds or so, about 610 (0.16%) were called active. Inconclusive results, whose numbers are uncertain, are shown with a selection of clear calls. Calls follow the shape of the dose curve; as a rule, active = well fitted inhibition curve with a large enough effect; inconclusive = small, poorly fitted or top-dose-only effect, or effect the other way, or another doubt; inactive = no such curve, though single readings can be large or run the other way. Where the call is inconclusive, the potency comes from a doubtful curve fit.
Potency is read from the fitted curve at half-maximal effect.

Experiment: Nrf2 qHTS screen for inhibitors: counterscreen for cytotoxicity
Conditions: A549 ARE-Fluc cells, CellTiter-Fluor viability, 18-24 h; series mostly up to 46 µM
In short: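 A549 ARE-Fluc cells in 5% FBS OPTI-MEM, 5000 cells/well, rested 2 h then exposed to compounds in concentration-response for 18-24 h at 37 °C. Viability by CellTiter-Fluor fluorescence (Ex 405/Em 525) after 30 min; luciferase luminescence (BugLite, 15 min, RT) read afterwards.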
For `c1ccc2c(N3CCCC3)nc(-c3ccncc3)nc2c1`, the Potency was inconclusive: 3.26 µM [activator, partial curve, poor fit]. With `COCc1cc(C)nc(OCC(=O)N/N=C/c2ccccc2O)c1C#N` the Potency was “inactive”. For `CCOC(=O)/C(C#N)=N/Nc1ccccc1C#N`, the Potency was inconclusive: 16.4 µM [falling, partial curve]. For `CC(=C/C(=O)O)/C=C/c1ccco1`, the Potency was “inactive”. With `CCCNS(=O)(=O)c1cccc(C(=O)NC2CCCc3ccccc32)c1` (centres undefined) the Potency was inconclusive: 20.6 µM [falling, single point]. For `CCOc1ccc(CNCc2c(C(=O)O)n(Cc3ccccc3C)c3cc(OC)ccc23)cc1OC`, the Potency was inconclusive: 29.1 µM [falling, single point]. In the case of `Cc1cc(C)cc(OCC(=O)Nc2cccc(-c3nnc(-c4ccco4)o3)c2)c1`, the Potency is reported as “inactive”. For `Cc1ccc(SCc2[nH]nc3c2C2(C(=O)Nc4ccc(F)cc42)C(C#N)=C(N)O3)cc1` (centres undefined), the Potency was inconclusive: 16.4 µM [falling, partial curve, poor fit]. For `O=C(Cn1c(O)c(/C=C2\C=Nc3ccc(Br)cc32)sc1=O)N1CCCC1`, the Potency was inconclusive: 29.1 µM [falling, single point]. For `CCC(C(=O)NC1CCCCC1)n1c(SCc2cccc(F)c2)nc2ccncc21` (centres undefined), the Potency was inconclusive: 18.4 µM [falling, single point] and inconclusive: 20.6 µM [falling, single point]. With `O=C(Nc1ccc(Cl)cc1[N+](=O)[O-])c1ccc2c(c1)OCCO2` the Potency was inconclusive: 29.1 µM [falling, single point]. For `Cc1nc(C(=O)Nc2ccc(Cl)cc2Cl)nn1-c1cc(OC(C)C)c(Cl)cc1Cl`, the Potency was “inactive”. With `O=C(NCCC1=CCCCC1)c1ccc(=O)oc1` the Potency was “inactive”. In the case of `COc1ccc(CCNC(=O)c2ccc(N(C)S(=O)(=O)c3ccc(C)cc3)cc2)cc1`, the Potency is reported as “inactive”. For `Cc1nn(Cc2ccc(Cl)c(Cl)c2)c(C)c1NC(=O)c1cn(-c2ccccc2)nc1-c1ccccc1`, the Potency was inconclusive: 29.1 µM [falling, single point]. For `CC(C)(C)C(=O)Nc1cccc(-c2nnc(-c3cccc(NC(=O)C(C)(C)C)c3)o2)c1`, the Potency was “inactive”. For `Cc1ccc(S(=O)(=O)c2c(C)nn(C(C)(C)C)c2OC(=O)C(C)(C)C)cc1`, the Potency was inconclusive: 0.82 µM [activator, full curve, poor fit]. With `O=C(O)c1ccc2c(c1Nc1ccccc1)C(=O)c1ccccc1C2=O` the Potency was inconclusive: 20.6 µM [falling, partial curve, poor fit]. In the case of `CCN(CC)C1Oc2cc3c(cc2C(c2cccc(OC)c2O)C1C)OCO3` (centres undefined), the Potency is reported as inconclusive: 6.51 µM [activator, partial curve, poor fit].
